Laboratory results reported in the supplement of paper PMC8728848.
This is one part of the list.

Assays:
Assay in all cases: glycan array binding signal (z-score within array); higher = stronger binding
Conditions in all cases: glycan notation: IUPAC condensed, linker removed
[1] = tested on: Gal6S(b1-4)GlcNAc6S
Method in brief: (§1)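 Arrays were curated from the Consortium for Functional Glycomics database, 3228 in total, and kept only where the protein sequence was available. Binding is expressed as a within-array Z-score. This score was averaged across arrays of the same protein sequence at different concentrations or buffers and across linkers, and negative values can be read as non-binding.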

[2] = tested on: Gal6S(b1-4)GlcNAc
Method in brief: as §1

[3] = tested on: Gal6S(b1-4)Glc
Method in brief: as §1

[4] = tested on: GalNAc(a1-3)GalNAc(b1-3)Gal(a1-4)Gal(b1-4)GlcNAc
Method in brief: as §1

[5] = tested on: GalNAc(a1-3)GalNAc(b1-3)Gal(a1-4)Gal(b1-4)Glc
Method in brief: as §1

[6] = tested on: GalNAc(a1-3)GalNAc
Method in brief: as §1

[7] = tested on: GalNAc(a1-3)Gal
Method in brief: as §1

[8] = tested on: GalNAc(b1-3)Gal(a1-4)Gal(b1-4)GlcNAc(b1-3)Gal(b1-4)Glc
Method in brief: as §1

[9] = tested on: GalNAc(b1-3)Gal(a1-4)Gal(b1-4)GlcNAc
Method in brief: as §1

[10] = tested on: GalNAc(b1-3)Gal(a1-6)Gal(b1-4)Glc
Method in brief: as §1

[11] = tested on: GalNAc(b1-3)GalNAc
Method in brief: as §1

[12] = tested on: GalNAc(b1-3)Gal
Method in brief: as §1

[13] = tested on: GalNAc(b1-3)GlcNAc
Method in brief: as §1

[14] = tested on: GalNAc(b1-4)Gal(b1-4)Glc
Method in brief: as §1

[15] = tested on: GalNAc(b1-4)GlcNAc(b1-2)Man(a1-3)[GalNAc(b1-4)GlcNAc(b1-2)Man(a1-6)]Man(b1-4)GlcNAc(b1-4)GlcNAc
Method in brief: as §1

[16] = tested on: GalNAc(b1-4)GlcNAc(b1-2)Man
Method in brief: as §1

[17] = tested on: GalNAc(b1-4)GlcNAc(b1-3)GalNAc(b1-4)GlcNAc
Method in brief: as §1

[18] = tested on: GalNAc(b1-4)GlcNAc6S
Method in brief: as §1

[19] = tested on: GalNAc(b1-4)GlcNAc
Method in brief: as §1

[20] = tested on: GalNAc(b1-6)GalNAc
Method in brief: as §1

[21] = tested on: GalNAc3S(b1-4)GlcNAc3S
Method in brief: as §1

[22] = tested on: GalNAc3S(b1-4)GlcNAc
Method in brief: as §1

[23] = tested on: GalNAc3S(b1-4)[Fuc(a1-3)]GlcNAc
Method in brief: as §1

[24] = tested on: GalNAc4S6S(b1-4)GlcNAc
Method in brief: as §1

[25] = tested on: GalNAc6S(b1-4)GlcNAc
Method in brief: as §1

[26] = tested on: Glc(a1-4)Glc(a1-4)Glc(a1-4)Glc
Method in brief: as §1

[27] = tested on: Glc(a1-4)Glc
Method in brief: as §1

[28] = tested on: Glc(a1-6)Glc(a1-6)Glc(a1-6)Glc
Method in brief: as §1

[29] = tested on: Glc(a1-6)Glc(a1-6)Glc
Method in brief: as §1

[30] = tested on: Glc(b1-4)Glc
Method in brief: as §1

[31] = tested on: Glc(b1-6)Glc
Method in brief: as §1

[32] = tested on: GlcA(b1-3)Gal
Method in brief: as §1

[33] = tested on: GlcA(b1-3)GlcNAc
Method in brief: as §1

[34] = tested on: GlcA(b1-6)Gal
Method in brief: as §1

[35] = tested on: GlcA3S(b1-3)Gal(b1-4)GlcNAc(b1-2)Man
Method in brief: as §1

[36] = tested on: GlcA3S(b1-3)Gal(b1-4)GlcNAc(b1-3)Gal(b1-4)Glc
Method in brief: as §1

[37] = tested on: GlcNAc(a1-3)Gal(b1-4)GlcNAc
Method in brief: as §1

[38] = tested on: GlcNAc(a1-4)Gal(b1-3)GlcNAc
Method in brief: as §1

[39] = tested on: GlcNAc(a1-4)Gal(b1-4)GalNAc
Method in brief: as §1

[40] = tested on: GlcNAc(a1-4)Gal(b1-4)GlcNAc(b1-3)Gal(b1-4)GlcNAc(b1-3)Gal(b1-4)GlcNAc
Method in brief: as §1

[41] = tested on: GlcNAc(a1-4)Gal(b1-4)GlcNAc(b1-3)Gal(b1-4)GlcNAc
Method in brief: as §1

[42] = tested on: GlcNAc(a1-4)Gal(b1-4)GlcNAc(b1-3)Gal(b1-4)Glc
Method in brief: as §1

[43] = tested on: GlcNAc(a1-4)Gal(b1-4)GlcNAc(b1-3)Gal(b1-4)[Fuc(a1-3)]GlcNAc(b1-3)Gal(b1-4)[Fuc(a1-3)]GlcNAc
Method in brief: as §1

[44] = tested on: GlcNAc(a1-4)Gal(b1-4)GlcNAc
Method in brief: as §1

[45] = tested on: GlcNAc(a1-6)Gal(b1-4)GlcNAc
Method in brief: as §1

[46] = tested on: GlcNAc(b1-2)Gal(b1-3)GalNAc
Method in brief: as §1

[47] = tested on: GlcNAc(b1-2)Man(a1-3)[GlcNAc(b1-2)Man(a1-6)]Man(b1-4)GlcNAc(b1-4)GlcNAc
Method in brief: as §1

[48] = tested on: GlcNAc(b1-2)Man(a1-3)[GlcNAc(b1-2)Man(a1-6)]Man(b1-4)GlcNAc(b1-4)[Fuc(a1-6)]GlcNAc
Method in brief: as §1

[49] = tested on: GlcNAc(b1-2)Man(a1-3)[GlcNAc(b1-4)][GlcNAc(b1-2)Man(a1-6)]Man(b1-4)GlcNAc(b1-4)GlcNAc
Method in brief: as §1

[50] = tested on: GlcNAc(b1-2)Man(a1-3)[GlcNAc(b1-4)][GlcNAc(b1-2)Man(a1-6)]Man(b1-4)GlcNAc(b1-4)[Fuc(a1-6)]GlcNAc
Method in brief: as §1

[51] = tested on: GlcNAc(b1-2)[GlcNAc(b1-4)]Man(a1-3)[GlcNAc(b1-2)Man(a1-6)]Man(b1-4)GlcNAc(b1-4)GlcNAc
Method in brief: as §1

[52] = tested on: GlcNAc(b1-2)[GlcNAc(b1-4)]Man(a1-3)[GlcNAc(b1-4)][GlcNAc(b1-2)Man(a1-6)]Man(b1-4)GlcNAc(b1-4)GlcNAc
Method in brief: as §1

[53] = tested on: GlcNAc(b1-2)[GlcNAc(b1-4)]Man(a1-3)[GlcNAc(b1-4)][GlcNAc(b1-2)[GlcNAc(b1-6)]Man(a1-6)]Man(b1-4)GlcNAc(b1-4)GlcNAc
Method in brief: as §1

[54] = tested on: GlcNAc(b1-2)[GlcNAc(b1-4)]Man(a1-3)[GlcNAc(b1-4)][GlcNAc(b1-2)[GlcNAc(b1-6)]Man(a1-6)]Man(b1-4)GlcNAc(b1-4)[Fuc(a1-6)]GlcNAc
Method in brief: as §1

[55] = tested on: GlcNAc(b1-2)[GlcNAc(b1-6)]Man(a1-6)[GlcNAc(b1-2)Man(a1-3)]Man(b1-4)GlcNAc(b1-4)GlcNAc
Method in brief: as §1

[56] = tested on: GlcNAc(b1-2)[GlcNAc(b1-6)]Man(a1-6)[GlcNAc(b1-2)Man(a1-3)]Man(b1-4)GlcNAc(b1-4)[Fuc(a1-6)]GlcNAc
Method in brief: as §1

[57] = tested on: GlcNAc(b1-2)[GlcNAc(b1-6)]Man(a1-6)[GlcNAc(b1-4)][GlcNAc(b1-2)Man(a1-3)]Man(b1-4)GlcNAc(b1-4)GlcNAc
Method in brief: as §1

[58] = tested on: GlcNAc(b1-3)Fuc
Method in brief: as §1

[59] = tested on: GlcNAc(b1-3)Gal(b1-3)GalNAc
Method in brief: as §1

[60] = tested on: GlcNAc(b1-3)Gal(b1-4)GlcNAc(b1-2)Man(a1-3)[GlcNAc(b1-3)Gal(b1-4)GlcNAc(b1-2)Man(a1-6)]Man(b1-4)GlcNAc(b1-4)GlcNAc
Method in brief: as §1

[61] = tested on: GlcNAc(b1-3)Gal(b1-4)GlcNAc(b1-2)Man(a1-3)[GlcNAc(b1-3)Gal(b1-4)GlcNAc(b1-2)Man(a1-6)]Man(b1-4)GlcNAc(b1-4)[Fuc(a1-6)]GlcNAc
Method in brief: as §1

[62] = tested on: GlcNAc(b1-3)Gal(b1-4)GlcNAc(b1-2)[GlcNAc(b1-3)Gal(b1-4)GlcNAc(b1-6)]Man(a1-6)[GlcNAc(b1-3)Gal(b1-4)GlcNAc(b1-2)Man(a1-3)]Man(b1-4)GlcNAc(b1-4)GlcNAc
Method in brief: as §1

[63] = tested on: GlcNAc(b1-3)Gal(b1-4)GlcNAc(b1-3)Gal(b1-4)GlcNAc(b1-2)Man(a1-3)[GlcNAc(b1-3)Gal(b1-4)GlcNAc(b1-3)Gal(b1-4)GlcNAc(b1-2)Man(a1-6)]Man(b1-4)GlcNAc(b1-4)GlcNAc
Method in brief: as §1

[64] = tested on: GlcNAc(b1-3)Gal(b1-4)GlcNAc(b1-3)Gal(b1-4)GlcNAc(b1-2)Man(a1-3)[GlcNAc(b1-3)Gal(b1-4)GlcNAc(b1-3)Gal(b1-4)GlcNAc(b1-2)Man(a1-6)]Man(b1-4)GlcNAc(b1-4)[Fuc(a1-6)]GlcNAc
Method in brief: as §1

Substance: MpAFP RI GFP (Marinomonas primoryensis)
- glycan array binding signal (z-score) [1]: -0.922
- glycan array binding signal (z-score) [2]: -0.634
- glycan array binding signal (z-score) [3]: -0.079
- glycan array binding signal (z-score) [4]: -0.635
- glycan array binding signal (z-score) [5]: -0.69
- glycan array binding signal (z-score) [6]: -0.566
- glycan array binding signal (z-score) [7]: -0.469
- glycan array binding signal (z-score) [8]: -0.495
- glycan array binding signal (z-score) [9]: 0.291
- glycan array binding signal (z-score) [10]: -0.618
- glycan array binding signal (z-score) [11]: -0.69
- glycan array binding signal (z-score) [12]: -0.57
- glycan array binding signal (z-score) [13]: -0.595
- glycan array binding signal (z-score) [14]: 0.384
- glycan array binding signal (z-score) [15]: 0.824
- glycan array binding signal (z-score) [16]: -0.208
- glycan array binding signal (z-score) [17]: 0.472
- glycan array binding signal (z-score) [18]: -0.46
- glycan array binding signal (z-score) [19]: 0.281
- glycan array binding signal (z-score) [20]: -0.532
- glycan array binding signal (z-score) [21]: -0.53
- glycan array binding signal (z-score) [22]: -0.63
- glycan array binding signal (z-score) [23]: -0.443
- glycan array binding signal (z-score) [24]: -0.557
- glycan array binding signal (z-score) [25]: -0.789
- glycan array binding signal (z-score) [26]: -0.189
- glycan array binding signal (z-score) [27]: 1.23
- glycan array binding signal (z-score) [28]: -0.208
- glycan array binding signal (z-score) [29]: -0.421
- glycan array binding signal (z-score) [30]: 0.208
- glycan array binding signal (z-score) [31]: -0.091
- glycan array binding signal (z-score) [32]: -0.624
- glycan array binding signal (z-score) [33]: -0.843
- glycan array binding signal (z-score) [34]: -0.318
- glycan array binding signal (z-score) [35]: -0.704
- glycan array binding signal (z-score) [36]: -0.571
- glycan array binding signal (z-score) [37]: -0.119
- glycan array binding signal (z-score) [38]: -0.491
- glycan array binding signal (z-score) [39]: -0.203
- glycan array binding signal (z-score) [40]: -0.687
- glycan array binding signal (z-score) [41]: -0.066
- glycan array binding signal (z-score) [42]: -0.368
- glycan array binding signal (z-score) [43]: 0.607
- glycan array binding signal (z-score) [44]: -0.413
- glycan array binding signal (z-score) [45]: -0.68
- glycan array binding signal (z-score) [46]: -0.363
- glycan array binding signal (z-score) [47]: 0.351
- glycan array binding signal (z-score) [48]: -0.205
- glycan array binding signal (z-score) [49]: -0.188
- glycan array binding signal (z-score) [50]: -0.359
- glycan array binding signal (z-score) [51]: -0.421
- glycan array binding signal (z-score) [52]: -0.502
- glycan array binding signal (z-score) [53]: -0.185
- glycan array binding signal (z-score) [54]: -0.405
- glycan array binding signal (z-score) [55]: 0.019
- glycan array binding signal (z-score) [56]: 0.221
- glycan array binding signal (z-score) [57]: -0.848
- glycan array binding signal (z-score) [58]: 0.273
- glycan array binding signal (z-score) [59]: -0.475
- glycan array binding signal (z-score) [60]: 0.827
- glycan array binding signal (z-score) [61]: 2.56
- glycan array binding signal (z-score) [62]: 5.77
- glycan array binding signal (z-score) [63]: 1.89
- glycan array binding signal (z-score) [64]: 2.86
